Consider eleven targets from the supplement of paper PMC10849652.

Chains of the proteins cited; added tags and fusions are not shown. Lines headed by an entry give the natural chain unless they say otherwise; changes in a name come on top.
UniProt Q9Y224: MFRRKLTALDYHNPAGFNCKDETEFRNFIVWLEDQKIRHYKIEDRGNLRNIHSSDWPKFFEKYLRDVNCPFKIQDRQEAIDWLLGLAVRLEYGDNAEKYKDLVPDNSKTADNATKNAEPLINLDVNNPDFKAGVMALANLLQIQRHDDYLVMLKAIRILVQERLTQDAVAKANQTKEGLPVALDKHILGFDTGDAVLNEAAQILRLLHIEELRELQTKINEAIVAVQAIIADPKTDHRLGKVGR
UniProt Q9NQC3: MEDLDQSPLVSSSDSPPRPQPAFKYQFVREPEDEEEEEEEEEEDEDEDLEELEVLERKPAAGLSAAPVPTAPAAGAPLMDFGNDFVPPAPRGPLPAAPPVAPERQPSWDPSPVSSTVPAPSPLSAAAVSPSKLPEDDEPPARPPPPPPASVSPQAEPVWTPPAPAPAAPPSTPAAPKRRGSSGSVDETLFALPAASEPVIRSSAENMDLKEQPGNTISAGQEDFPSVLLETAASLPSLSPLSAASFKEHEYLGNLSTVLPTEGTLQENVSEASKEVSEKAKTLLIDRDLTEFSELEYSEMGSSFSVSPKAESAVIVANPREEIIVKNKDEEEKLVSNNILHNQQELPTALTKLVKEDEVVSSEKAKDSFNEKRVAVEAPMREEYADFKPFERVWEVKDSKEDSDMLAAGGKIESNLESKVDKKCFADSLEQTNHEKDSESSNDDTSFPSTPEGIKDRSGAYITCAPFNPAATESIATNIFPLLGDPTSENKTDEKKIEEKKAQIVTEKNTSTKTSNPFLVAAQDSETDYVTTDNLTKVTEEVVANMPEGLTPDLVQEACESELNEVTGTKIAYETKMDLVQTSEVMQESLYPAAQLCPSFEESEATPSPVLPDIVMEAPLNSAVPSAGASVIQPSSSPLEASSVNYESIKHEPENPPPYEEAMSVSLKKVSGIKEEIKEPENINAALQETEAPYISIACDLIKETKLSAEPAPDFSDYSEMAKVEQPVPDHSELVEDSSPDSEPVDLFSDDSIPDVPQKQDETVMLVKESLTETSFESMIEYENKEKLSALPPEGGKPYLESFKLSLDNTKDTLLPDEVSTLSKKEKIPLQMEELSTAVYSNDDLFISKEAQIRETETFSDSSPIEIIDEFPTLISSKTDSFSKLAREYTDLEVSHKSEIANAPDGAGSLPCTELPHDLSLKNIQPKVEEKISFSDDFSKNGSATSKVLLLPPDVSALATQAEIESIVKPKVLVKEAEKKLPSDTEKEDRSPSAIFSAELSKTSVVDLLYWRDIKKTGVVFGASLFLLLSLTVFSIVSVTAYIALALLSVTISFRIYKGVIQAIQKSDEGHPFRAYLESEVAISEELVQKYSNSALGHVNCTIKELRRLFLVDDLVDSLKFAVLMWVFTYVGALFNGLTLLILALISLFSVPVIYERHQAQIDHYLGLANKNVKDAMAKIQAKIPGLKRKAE
UniProt Q5VUM1: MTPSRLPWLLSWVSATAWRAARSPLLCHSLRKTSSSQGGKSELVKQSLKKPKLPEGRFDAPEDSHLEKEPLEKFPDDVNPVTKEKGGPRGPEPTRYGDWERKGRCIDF
UniProt P57060: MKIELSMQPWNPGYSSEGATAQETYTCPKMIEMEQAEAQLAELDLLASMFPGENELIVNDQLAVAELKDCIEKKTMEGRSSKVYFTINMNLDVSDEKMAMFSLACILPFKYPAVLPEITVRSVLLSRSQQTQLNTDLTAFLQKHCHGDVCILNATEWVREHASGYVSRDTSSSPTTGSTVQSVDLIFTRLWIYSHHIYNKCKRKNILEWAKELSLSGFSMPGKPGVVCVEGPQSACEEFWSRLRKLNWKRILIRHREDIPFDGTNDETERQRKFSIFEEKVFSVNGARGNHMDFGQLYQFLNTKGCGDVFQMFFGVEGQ
UniProt Q96BU1: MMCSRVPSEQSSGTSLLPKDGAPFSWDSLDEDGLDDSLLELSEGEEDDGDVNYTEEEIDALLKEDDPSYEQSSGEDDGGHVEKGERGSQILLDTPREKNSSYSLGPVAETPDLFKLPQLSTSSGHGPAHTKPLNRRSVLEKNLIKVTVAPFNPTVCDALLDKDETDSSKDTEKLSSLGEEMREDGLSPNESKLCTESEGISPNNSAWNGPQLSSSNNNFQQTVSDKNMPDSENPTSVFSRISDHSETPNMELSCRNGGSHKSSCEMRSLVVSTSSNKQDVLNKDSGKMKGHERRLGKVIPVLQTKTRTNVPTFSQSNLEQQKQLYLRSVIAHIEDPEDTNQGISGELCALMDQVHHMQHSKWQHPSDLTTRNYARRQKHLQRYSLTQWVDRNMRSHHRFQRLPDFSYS
UniProt Q9BWG6: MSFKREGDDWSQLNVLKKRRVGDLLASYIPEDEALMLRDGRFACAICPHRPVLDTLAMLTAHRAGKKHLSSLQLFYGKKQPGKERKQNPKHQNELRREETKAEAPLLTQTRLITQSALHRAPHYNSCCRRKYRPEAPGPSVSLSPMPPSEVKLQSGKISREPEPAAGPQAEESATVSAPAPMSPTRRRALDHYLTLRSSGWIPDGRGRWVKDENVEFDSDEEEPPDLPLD
UniProt P60903, whole entry, looked up: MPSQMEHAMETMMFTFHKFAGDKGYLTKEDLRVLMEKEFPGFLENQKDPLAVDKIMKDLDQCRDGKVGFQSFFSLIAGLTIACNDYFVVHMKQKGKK
UniProt Q96GA7: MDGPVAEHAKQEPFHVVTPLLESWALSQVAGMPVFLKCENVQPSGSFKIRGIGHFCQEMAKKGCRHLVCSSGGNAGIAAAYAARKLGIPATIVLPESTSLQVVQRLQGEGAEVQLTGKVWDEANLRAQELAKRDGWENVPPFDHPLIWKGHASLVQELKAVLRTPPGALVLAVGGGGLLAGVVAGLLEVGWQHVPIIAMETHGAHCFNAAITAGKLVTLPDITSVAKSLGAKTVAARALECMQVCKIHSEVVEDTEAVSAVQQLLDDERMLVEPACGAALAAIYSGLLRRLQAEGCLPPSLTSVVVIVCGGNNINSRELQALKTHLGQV
UniProt Q14684: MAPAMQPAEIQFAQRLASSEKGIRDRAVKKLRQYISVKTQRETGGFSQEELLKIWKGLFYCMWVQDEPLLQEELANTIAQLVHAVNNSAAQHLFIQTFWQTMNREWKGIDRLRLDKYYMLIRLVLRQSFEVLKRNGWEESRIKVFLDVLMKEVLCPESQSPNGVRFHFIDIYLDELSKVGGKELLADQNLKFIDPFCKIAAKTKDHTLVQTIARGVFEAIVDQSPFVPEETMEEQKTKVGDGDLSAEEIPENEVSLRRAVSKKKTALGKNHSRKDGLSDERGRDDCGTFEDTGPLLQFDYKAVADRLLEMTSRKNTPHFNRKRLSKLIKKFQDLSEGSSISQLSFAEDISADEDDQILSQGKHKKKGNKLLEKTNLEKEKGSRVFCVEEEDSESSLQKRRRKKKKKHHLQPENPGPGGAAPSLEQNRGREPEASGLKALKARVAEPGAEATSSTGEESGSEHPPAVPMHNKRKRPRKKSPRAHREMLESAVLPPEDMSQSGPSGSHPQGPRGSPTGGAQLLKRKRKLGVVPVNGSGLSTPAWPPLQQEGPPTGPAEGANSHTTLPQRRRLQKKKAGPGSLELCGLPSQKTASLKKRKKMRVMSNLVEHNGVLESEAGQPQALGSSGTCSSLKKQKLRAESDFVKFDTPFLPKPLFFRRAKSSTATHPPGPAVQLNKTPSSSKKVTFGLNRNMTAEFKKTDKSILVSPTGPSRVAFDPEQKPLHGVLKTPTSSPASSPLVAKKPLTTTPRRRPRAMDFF
UniProt O75298: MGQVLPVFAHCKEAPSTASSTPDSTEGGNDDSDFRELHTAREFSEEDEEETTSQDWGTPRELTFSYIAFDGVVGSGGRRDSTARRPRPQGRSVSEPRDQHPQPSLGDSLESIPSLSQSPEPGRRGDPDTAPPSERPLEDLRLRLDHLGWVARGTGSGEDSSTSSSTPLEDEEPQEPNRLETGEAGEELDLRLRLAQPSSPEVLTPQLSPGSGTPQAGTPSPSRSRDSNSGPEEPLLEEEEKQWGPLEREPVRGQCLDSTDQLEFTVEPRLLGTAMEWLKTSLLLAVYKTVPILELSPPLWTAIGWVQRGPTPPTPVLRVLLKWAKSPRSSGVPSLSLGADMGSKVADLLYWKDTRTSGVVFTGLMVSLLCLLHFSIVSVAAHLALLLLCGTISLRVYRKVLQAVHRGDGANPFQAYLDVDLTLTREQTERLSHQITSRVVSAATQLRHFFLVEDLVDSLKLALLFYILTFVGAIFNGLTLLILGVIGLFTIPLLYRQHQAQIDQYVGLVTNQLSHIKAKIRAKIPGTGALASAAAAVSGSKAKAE
UniProt Q9BRK5: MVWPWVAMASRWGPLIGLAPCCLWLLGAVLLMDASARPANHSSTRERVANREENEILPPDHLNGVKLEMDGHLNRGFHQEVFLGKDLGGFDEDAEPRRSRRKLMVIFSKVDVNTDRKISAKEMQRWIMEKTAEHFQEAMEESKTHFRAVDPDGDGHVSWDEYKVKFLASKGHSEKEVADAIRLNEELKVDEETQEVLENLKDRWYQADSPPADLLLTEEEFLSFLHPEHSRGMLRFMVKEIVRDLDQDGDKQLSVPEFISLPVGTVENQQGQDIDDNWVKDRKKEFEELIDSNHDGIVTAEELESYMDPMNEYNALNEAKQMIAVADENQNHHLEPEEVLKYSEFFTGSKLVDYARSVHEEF

Holding throughout (assay): log2 fold change, soluble protein after heating vs DMSO (PISA); higher = thermal stabilisation; K562 cells, 10 uM, 30 min; active = over 0.2 and 3.5 SD of the protein, either way, in both replicates (recomputed)
Compound in assay [1]: NC(=O)Nc1cc(-c2cccc(F)c2)sc1C(=O)N[C@H]1CCCNC1
Put shortly: (§1)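 Aliquots of K562 cells (2×10^6 cells/mL) treated with 10 μM compound for 30 min were heated for 3 min over 48°C-58°C. After pooling and extraction in PBS with 0.5% NP-40 at 4°C, soluble protein from a 21,000xg, 90 min spin was quantified by TMTpro 16plex LC-MS/MS with channel sums equalised. Thermal stability is expressed against control samples, from duplicates, as a log2 fold change.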

Compound in assay [2]: NC(=O)c1cnc(N[C@@H]2CCCC[C@@H]2N)nc1Nc1cccc(-n2nccn2)c1
The method, boiled down: as §1

Compound in assay [3]: NC1(c2ccc(-c3nc4ccn5c(=O)[nH]nc5c4cc3-c3ccccc3)cc2)CCC1
The method, boiled down: as §1

Compound in assay [4]: NCC(=O)Nc1ccc(-n2nc(C(F)(F)F)cc2-c2ccc3c(ccc4ccccc43)c2)cc1
Put shortly: as §1

Compound in a further assay: Nc1ccccc1NC(=O)c1ccc(CNC(=O)OCc2cccnc2)cc1 [entinostat]
The method, boiled down: as §1

Compound in a further assay: O=C(CCCCCCC(=O)Nc1ccccc1)NO [vorinostat]
The method, boiled down: as §1

Compound in a further assay: O=C(CCCCCCNC(=O)c1cnc(N(c2ccccc2)c2ccccc2Cl)nc1)NO [citarinostat]
The method, boiled down: as §1

Compound in the next assay: O=C(O)c1ccc2c(c1)nc(Nc1cccc(Cl)c1)c1ccncc12 [silmitasertib]
Put shortly:
as §1

Compound in assay [5]: O=C1NC(=O)C(c2cnc3ccccn23)=C1c1cn2c3c(cc(F)cc13)CN(C(=O)N1CCCCC1)CC2
The method, boiled down:
as §1

Compound in assay [6]: c1cc(OCCN2CCCCC2)cc(-c2n[nH]c3ccc(-c4nnc[nH]4)cc23)c1
The method, boiled down:
as §1

Compound in the next assay: c1cn2cc(-c3ccc4cn[nH]c4c3)nc(Nc3ccc(N4CCOCC4)cc3)c2n1 [entospletinib]
Put shortly: as §1

The list shows a part of the results.

As for RTRAF (UniProt Q9Y224), the log2 fold change in assay [1] was inactive: 0.012; in assay [2], inactive: -0.009; in assay [3], inactive: 0.063; in assay [4], inactive: 0.022; with entinostat, inactive: -0.028; with vorinostat it was inactive: -0.043. Also, the log2 fold change is inactive: 0.014 with citarinostat; inactive: 0.087 with silmitasertib; inactive: 0.063 in assay [5]; inactive: -0.071 in assay [6]; inactive: 0.048 with entospletinib.

With RTN4 isoform 2 (UniProt Q9NQC3), the log2 fold change in [1] is inactive: -0.078; in [2] it was inactive: -0.021; in assay [4] it was inactive: -0.033; with entinostat it was inactive: -0.051; with vorinostat, inactive: 0.016; in [5], inactive: 0.026.

Turning to SDHAF4 (UniProt Q5VUM1), the log2 fold change is inactive: -0.016 in assay [1]; inactive: 0.07 in assay [2]; inactive: -0.111 in [3]; inactive: -0.021 in the assay with entinostat; inactive: 0.076 with citarinostat; inactive: 0.04 in the assay with silmitasertib. For the same target, the log2 fold change in assay [5] was inactive: 0.005; in [6] it was inactive: 0.108.

Turning to RWDD2B (UniProt P57060), the log2 fold change was inactive: -0.141 in assay [1]; inactive: 0.257 in [2]; inactive: -0.182 in assay [4]; inactive: 0.003 with entinostat; inactive: -0.226 with vorinostat; inactive: 0.077 in the assay with citarinostat. Besides, the log2 fold change was inactive: -0.053 in [6] and inactive: 0.073 in the assay with entospletinib.

As to S100PBP (UniProt Q96BU1), the log2 fold change in [1] is inactive: 0.108; in assay [2], inactive: -0.009; in assay [3], inactive: 0.056; in assay [4], inactive: 0.109; with entinostat, inactive: 0; with vorinostat, inactive: 0.063. Also, the log2 fold change is inactive: 0.011 in the assay with citarinostat; inactive: -0.004 with silmitasertib; inactive: 0.049 in assay [5]; inactive: 0.021 in [6]; inactive: -0.006 with entospletinib.

SCNM1 (UniProt Q9BWG6): the log2 fold change in [1] was inactive: 0.104; in [2], inactive: -0.258; in [3] it was inactive: 0.081; with entinostat it was inactive: -0.085; with vorinostat, inactive: -0.027; with citarinostat it was inactive: 0.117. Also, the log2 fold change was inactive: 0.086 with silmitasertib, inactive: 0.115 in [5], inactive: -0.035 in assay [6] and inactive: -0.12 with entospletinib.

S100A10 (UniProt P60903): the log2 fold change in assay [1] is inactive: 0.3; in assay [2] it was inactive: 0.283; with entinostat, inactive: 0.189; with vorinostat, inactive: -0.023; in the assay with citarinostat, inactive: 0.333; in assay [6], active: 0.792.

SDSL (UniProt Q96GA7): the log2 fold change in assay [1] was inactive: -0.015; in assay [2], inactive: 0.043; in assay [3] it was inactive: -0.033; in [4], inactive: 0.116; with entinostat, inactive: 0.017; in the assay with vorinostat it was inactive: -0.008. The log2 fold change with citarinostat was inactive: 0.032; in the assay with silmitasertib it was inactive: -0.002; in assay [5] it was inactive: -0.036; in [6] it was inactive: -0.01; with entospletinib, inactive: -0.018.

In the case of RRP1B (UniProt Q14684), the log2 fold change in assay [1] is inactive: 0.003; in assay [3], inactive: -0.06; in assay [4], inactive: 0.207; with entinostat, inactive: -0.12; with vorinostat, inactive: -0.114; with citarinostat it was inactive: 0.033. Besides, the log2 fold change is inactive: 0.118 with silmitasertib, inactive: 0.304 in assay [5], inactive: 0.062 in assay [6] and inactive: 0.124 in the assay with entospletinib.

For RTN2 (UniProt O75298), the log2 fold change is inactive: -0.037 in assay [1]; inactive: 0.104 in [2]; inactive: -0.051 in assay [3]; inactive: 0.07 in [4]; inactive: -0.131 with entinostat; inactive: 0.011 in the assay with citarinostat. For the same target, the log2 fold change was inactive: 0.004 with silmitasertib, inactive: -0.031 in assay [5], inactive: -0.048 in assay [6] and inactive: 0.083 in the assay with entospletinib.

On to SDF4 (UniProt Q9BRK5), for which the log2 fold change in assay [1] is inactive: 0.022; in assay [2] it was inactive: 0.05; in assay [3], inactive: 0.024; in assay [4], inactive: 0.056; with entinostat, inactive: -0.026; with vorinostat, inactive: -0.025. The log2 fold change with citarinostat is inactive: 0.01; with silmitasertib it was inactive: -0.002; in assay [5], inactive: -0.005; in assay [6], inactive: -0.013; with entospletinib, inactive: 0.01.
